Here are results for 38 compounds from PubChem BioAssay AID445 (National Center for Advancing Translational Sciences (NCATS), 2006).

A short description of the test: IkB Signaling. The note with it: ABC-DLBCL IkBa-CBG/CBR dual luciferase ratio (green luciferase fused to IkBa over red control in OCI-Ly3 lymphoma cells), 4 h. Put shortly: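 In this assay, an IκBα–CBG68 fusion accumulates when IKK-driven degradation is blocked; native CBR normalizes for cell number. OCI-Ly3 cells were treated 4 h with compound and doxycycline, then green and red light read after Chroma-Glo addition.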
Where [1] appears, read: measured here: control luc red channel unless noted.
[2] abbreviates: measured here: IkB-luc green channel.
[3] abbreviates: measured here: control luc red channel.

Broadly, the AC50 is the concentration giving half of the maximal activity seen.

SMILES strings stand for the structures. Some of the results follow. The main result of the screen is listed elsewhere. These columns were measured beside it and carry no call. The list favours compounds with an active or inconclusive main result. The note in brackets gives the kind of curve behind each potency; many fits are weak.

As for `Cc1noc(/C=C/N(C)C)c1S(=O)(=O)N1CCCC(C(=O)Nc2ccc(F)cc2F)C1` (stereo not given), the AC50 under setting [1] was 10 µM [falling, partial curve]. Still for that read-out and setting: as for `CCN(CC)C(=O)c1sc(NC(=O)C(C)Sc2nc(-c3ccccc3)cc(C(F)(F)F)n2)c(C(=O)OC)c1C` (stereo not given), the figure is 1.26 µM [falling, partial curve]. For `COc1ccc(C2=CC(c3ccccc3F)n3ncc(C(=O)Nc4ccc(C)cc4)c3N2)cc1` (stereo not given), the AC50 under setting [1] was 12.6 µM [falling, partial curve, poor fit].

Consider `CCOC(=O)c1c(-c2ccccc2)csc1NC(=O)c1nc(S(=O)(=O)CC)ncc1Cl`, for which, under setting [1], the AC50 is 7.94 µM [falling, full curve]. In the case of `Cc1cccc(-c2c3c(=O)n(C)c(=O)n(C)c3cn2-c2cc(N)c(Cl)cc2Cl)c1`, the AC50 under setting [1] is 31.6 µM [falling, partial curve]. Consider `CN(C)c1oc(/C=C/c2ccc(F)cc2)nc1C#N`, for which the AC50 under setting [1] was 0.794 µM [rising, partial curve]. With `CCN(c1ccccc1)c1nnc(NC(=O)Nc2cccc(Cl)c2C)s1`, the half-maximal activity concentration (AC50) under setting [1] was 25.1 µM [falling, single point]. The same measure, in the same setting: as for `CC(=O)c1ccc(NC(=O)Nc2nnc(N3CCCC(C)C3)s2)cc1` (stereo not given), the figure is 12.6 µM [falling, partial curve]; as for `CSc1ccc(-c2nc3ncccn3c2Nc2ccc(C)c(C)c2)cc1`, 25.1 µM [falling, single point]; as for `Nc1cc(=O)nc(SCC(=O)Nc2cccc(Cl)c2)n1CCc1ccccc1`, 15.8 µM [falling, partial curve, poor fit]. As for `Cc1cc(C)c2c(=O)cc(CSc3nnc(COc4ccccc4C)n3C)[nH]c2c1`, the AC50 under setting [1] is 39.8 µM [falling, single point]. Consider `COc1ccc(CC(=O)NCc2ccc3c(c2)CCN3C(=O)c2ccc(Cl)cc2)cc1OC`, for which the concentration at half-maximal activity (AC50) under setting [1] was 7.94 µM [falling, partial curve]. Same read-out and setting: under `CCOC(=O)c1ccc(N2C(=O)c3n[nH]c(-c4cccs4)c3C2c2ccc(C(C)C)cc2)cc1` (stereo not given) stands 12.6 µM [falling, single point]. Regarding `Cc1ccc2c(c1)c1c(c(=O)n(-c3ccccc3C)c(=O)n1CC(=O)NCc1ccccc1)n2C`, the AC50 under setting [1] was 3.16 µM [falling, full curve]. With `Cc1cc(-c2ccc(C)c(S(=O)(=O)N(C)c3ccc(C)c(C)c3)c2)on1`, the AC50 under setting [1] was 39.8 µM [falling, partial curve].

Regarding `COc1ccccc1NC(=O)Cn1c(=O)n(Cc2ccco2)c(=O)c2cccnc21`, under setting [1], the AC50 was 31.6 µM [falling, single point]. Still for that read-out and setting: as for `Cc1ccc(OCCCn2c(CCNC(=O)C3CCCCC3)nc3ccccc32)c(C)c1`, the figure is 10 µM [falling, partial curve]; as for `COC(=O)c1ccc(NCC(=O)c2ccccc2)cc1`, 39.8 µM [rising, single point] [measured here: IkB-luc green channel].

`CCOC(=O)c1c(Oc2ccc(OC)cc2)nnc(-c2ccccc2)c1-c1ccccc1`: the AC50 under setting [1] was 10 µM [falling, partial curve, poor fit].

Consider `COc1ccc(OC)c(NC(=O)CN2C(=O)c3ccccc3Sc3ccc(C(=O)N4CCCC4)cc32)c1`, for which the concentration at half-maximal activity (AC50) under setting [1] is 1.58 µM [rising, full curve]. The same measure, in the same setting: as for `Fc1ccc(C(c2nnnn2Cc2ccccc2)N2CCSCC2)cc1` (stereo not given), the figure is 39.8 µM [falling, single point]; as for `CCS(=O)(=O)c1ncc(Cl)c(C(=O)N2CCN(c3cccc(Cl)c3)CC2)n1`, 2 µM [falling, full curve].

Take `CC(=O)OC(C(=O)NCc1ccco1)c1cccnc1` (stereo not given): the AC50 reads like this: under setting [2], 31.6 µM [rising, partial curve]; under setting [3], 31.6 µM [falling, single point]. With `Cc1ccc(CNS(=O)(=O)c2cc(C(=O)Nc3cccc(C(F)(F)F)c3)ccc2F)cc1`, the AC50 under setting [1] was 31.6 µM [falling, partial curve]. As for `Cc1cccc(N2CCN(C3(c4ccccc4)C(=O)c4ccccc4C3=O)CC2)c1C`, the AC50 under setting [1] was 3.98 µM [falling, partial curve]. Still for that read-out and setting: under `Cc1ccc(S(=O)(=O)N2CCOCC2)cc1C(=O)Nc1ccccc1C(=O)O` stands 3.98 µM [falling, full curve]; under `O=S(=O)(Nc1ccc2nc(-c3cccc(Cl)c3)oc2c1)c1ccccc1`, 25.1 µM [falling, partial curve]; under `Cc1ccc2onc(CC(=O)N(C)c3ccccc3)c2c1`, 6.31 µM [falling, partial curve]. For `COc1ccc(CCNC(=O)c2c(C)nn(-c3ccc(F)cc3)c2-n2cccc2)cc1OC`, the AC50 under setting [1] was 3.98 µM [falling, full curve, poor fit]. On the same count and under the same terms, under `O=C(O)CCC(=O)Nc1ccc(Br)cn1` stands 39.8 µM [falling, single point]. For the compound `COc1ccc(C)cc1NC(=O)c1cnc2scc(C)n2c1=O`, the concentration at half-maximal activity (AC50) under setting [2] was 3.98 µM [rising, partial curve] and the AC50 under setting [3] is 3.16 µM [rising, partial curve]. Regarding `CCc1ccc(NC(=O)Cn2c(=O)oc3cc(S(=O)(=O)N4CCCCCC4)ccc32)cc1`, the AC50 under setting [1] is 3.16 µM [falling, full curve]. On the same count and under the same terms, under `CC(C)Sc1ncc(Cl)c(C(=O)Nc2nnc(C(C)C)s2)n1` stands 39.8 µM [falling, single point]. In the case of `COc1ccc(N2CSC3=C(C#N)C(c4cc(OC)ccc4OC)CC(=O)N3C2)c(OC)c1` (stereo not given), the AC50 under setting [1] is 3.16 µM [rising, full curve, poor fit] [measured here: IkB-luc green channel].

On to `CCOC(=O)c1c(C)oc2c1c1c(c3ccccc32)OCN(Cc2cccnc2)C1`, for which, under setting [1], the AC50 was 25.1 µM [falling, single point].

As to `CN(C(=O)C(=O)Nc1ccc2nc3n(c(=O)c2c1)CCCCC3)c1cccc(C(F)(F)F)c1`, the AC50 under setting [1] was 12.6 µM [falling, partial curve].

Regarding `O=C1NC(c2ccccn2)Nc2sc3c(c21)CCC3` (stereo not given), the AC50 under setting [1] is 31.6 µM [rising, single point] [measured here: IkB-luc green channel]. Same read-out and setting: as for `CCc1ccc(CNC(=O)c2cc(-c3ccc(Br)s3)nc3ccccc23)cc1`, the figure is 12.6 µM [falling, partial curve].
